# Screening data, single-dose tests

Chains of the proteins cited; added tags and fusions are not shown. Residues count along the entry.
UniProt Q8IDJ8, 1-583: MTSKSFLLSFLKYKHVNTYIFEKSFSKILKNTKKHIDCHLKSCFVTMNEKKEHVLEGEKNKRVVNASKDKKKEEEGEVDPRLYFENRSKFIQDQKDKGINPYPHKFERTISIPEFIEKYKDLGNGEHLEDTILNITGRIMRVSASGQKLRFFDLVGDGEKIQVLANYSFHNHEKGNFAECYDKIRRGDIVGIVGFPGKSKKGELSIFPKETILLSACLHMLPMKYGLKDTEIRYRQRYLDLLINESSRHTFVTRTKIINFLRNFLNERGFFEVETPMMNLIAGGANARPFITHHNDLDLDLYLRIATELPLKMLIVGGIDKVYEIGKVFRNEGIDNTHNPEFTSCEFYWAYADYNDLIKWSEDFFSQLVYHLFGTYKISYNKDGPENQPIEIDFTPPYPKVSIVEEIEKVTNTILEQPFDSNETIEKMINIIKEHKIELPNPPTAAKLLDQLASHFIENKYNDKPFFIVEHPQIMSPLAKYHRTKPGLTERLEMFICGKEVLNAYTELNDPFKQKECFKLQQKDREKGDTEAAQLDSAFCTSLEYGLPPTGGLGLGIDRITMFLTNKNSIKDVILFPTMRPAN
UniProt P9WPC5, whole entry: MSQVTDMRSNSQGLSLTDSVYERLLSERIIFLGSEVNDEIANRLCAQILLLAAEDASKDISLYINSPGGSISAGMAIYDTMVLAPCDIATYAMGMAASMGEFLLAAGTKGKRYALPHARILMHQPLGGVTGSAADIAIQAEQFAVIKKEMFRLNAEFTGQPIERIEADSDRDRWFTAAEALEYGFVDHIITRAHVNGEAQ
UniProt P9WPC3, whole entry partner: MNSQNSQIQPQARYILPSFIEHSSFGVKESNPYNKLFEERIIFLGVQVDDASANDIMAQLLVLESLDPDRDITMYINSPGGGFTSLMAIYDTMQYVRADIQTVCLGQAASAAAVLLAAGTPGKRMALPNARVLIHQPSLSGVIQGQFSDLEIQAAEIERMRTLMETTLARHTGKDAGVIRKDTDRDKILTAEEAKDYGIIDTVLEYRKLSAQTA
UniProt P9WFT3, whole entry: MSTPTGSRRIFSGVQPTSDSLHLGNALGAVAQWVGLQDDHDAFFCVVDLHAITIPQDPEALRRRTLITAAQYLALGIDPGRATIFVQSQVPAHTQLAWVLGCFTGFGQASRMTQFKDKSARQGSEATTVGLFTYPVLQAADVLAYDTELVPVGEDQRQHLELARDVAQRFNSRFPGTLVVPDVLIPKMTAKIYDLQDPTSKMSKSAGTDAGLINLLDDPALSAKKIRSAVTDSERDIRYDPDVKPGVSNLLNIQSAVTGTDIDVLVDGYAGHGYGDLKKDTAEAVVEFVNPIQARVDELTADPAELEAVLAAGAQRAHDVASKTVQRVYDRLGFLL

The filed quantity is “Percent Effect” (%). The controls that fix the scale are not given in the record; negative values are as filed. The compounds are a random part of those screened. A dash means the value is not listed here; it may have been measured.

PfKRS1: 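Enzyme assay of the cytosolic lysyl-tRNA synthetase in 384-well plates, read by luminescence. Target: Lysine-tRNA ligase, Plasmodium falciparum 3D7 (UniProt Q8IDJ8). Tested at 30 µM. Higher reads as stronger inhibition, judged from the few compounds that gave an IC50. Of about 69,000 compounds tested this way, about 49 (0.071%) reached 50% or more in at least one test.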
ClpP1P2: 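ClpP1P2, Mycobacterium tuberculosis (UniProt P9WPC5 and UniProt P9WPC3). Protease assay of ClpP1P2, read by the AMC dye that it sets free. Compounds at 50 µM. Higher reads as stronger inhibition, judged from the few compounds that gave an IC50. Most other retested compounds had strongly negative values. Size under these conditions: about 69,000 compounds, about 10 of them at 50% or above in at least one test.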
MtTrpRS: 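Enzyme assay of tryptophanyl-tRNA synthetase; the read-out is not stated. Target: Tryptophan-tRNA ligase, Mycobacterium tuberculosis (UniProt P9WFT3). Tested at 10 µM. Direction is not recorded; retested compounds ran higher, which suggests that high means inhibition. Size under these conditions: about 65,000 compounds, about 64 of them at 50% or above in at least one test.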

compound	PfKRS1	ClpP1P2	MtTrpRS
CCn1cc2c(n1)C(COCC1CC1)CN(C(=O)c1cnoc1C)C2 (centres unmarked)	6.061	-0.106	-1.834
CC(NCc1cc(O)c2cccc(F)c2n1)c1ccc(S(C)(=O)=O)cc1 (centres unmarked)	0.5865	1.058	-3.406
COCCN1C[C@H]2CN(Cc3cccc(OC(F)(F)F)c3)CCN2C1=O	5.87	-12.91	-4.806
Cc1nc(N(C)CCCc2nccn2C)c2nc(C)oc2n1	25.91	-3.241	0.895
Cc1nc2cc(CNC(=O)C3CC(=O)N(C4CCCC4)C3)ccc2n1C (centres unmarked)	3.838	-2.642	2.022
Cc1ccsc1C(=O)N1CCCC(c2[nH]ncc2S(C)(=O)=O)C1 (centres unmarked)	3.969	-16.8	-
CCn1cc(-c2cc(C(F)(F)F)nn2CCC#N)cn1	4.324	-21.09	0.8911
O=C(O)c1c(-c2ccoc2)ncc2c1CCN(C1CCOC1)C2 (centres unmarked)	16.58	5.086	-2.05
COc1cc2nc3n(c(=O)c2cc1OC)CCN(C(=O)C1CCC1)CC3	2.728	-9.457	-
O=C(Nc1ccccc1C(=O)NCCN1CCOCC1)c1ccco1	-0.6212	-9.925	4.351
Cc1nc(C)n(CC2CCCN2CC(=O)NCCc2ccccc2)n1 (centres unmarked)	-0.4521	-15.39	-0.2138
COc1ccc(S(=O)(=O)NCCC(=O)NCc2ccoc2)cc1OC	3.202	11.39	2.1
CN(Cc1nccn1C)S(=O)(=O)Cc1cccc(C#N)c1	1.024	-0.9617	0.516
CCn1nnc2c1C(COC)CN(C(=O)Cc1ccccn1)C2 (centres unmarked)	4.855	-5.051	1.106
Cc1ccccc1OCC1CCCN(c2cc(N)nc(N)n2)C1 (centres unmarked)	3.849	11.28	-9.255
CCS(=O)(=O)N1CCc2nc(N3CCCC3)nc(N(C)C)c2CC1	1.653	6.263	6.149
Cc1ccc(CN2C[C@H]3OC(=O)N(Cc4ccccn4)[C@H]3C2)o1	-1.572	-4.805	-0.09671
CNC(=O)C(C)(C)NC(=O)c1cc(OCC2CCC2)cc(C(=O)OC)c1	3.999	-7.747	2.922
CCc1ccc2c(C3CN(C(C)=O)C3)ncn2c1	7.046	-8.721	-3.3
COc1ccc(OC)c(-n2cnnc2C)c1	-0.8937	4.644	-2.22
c1cnn(CC2CCN(c3nc(C4CC4)nc4c3CCNCC4)CC2)c1	0.2717	-3.81	-5.008
CCC(=O)NS(=O)(=O)c1cccnc1Nc1cccc(Cl)c1Cl	2.286	-8.412	2.039
Cc1ccc(C)c(S(=O)(=O)NCCNc2ccc(-n3cccc3)nn2)c1	-1.845	-8.087	-2.964
Cc1cc(CN(C)C(=O)C2CCCN(C(N)=O)C2)no1 (centres unmarked)	2.408	6.535	3.15
Cc1cc(-n2cccn2)ccc1CN1CCOCC(CN(C)C)C1 (centres unmarked)	-1.29	-4.958	5.008
Cn1ncc2c1C(COCC1CC1)CN(Cc1ccco1)C2 (centres unmarked)	1.3	-10.54	-3.539
Cn1ccnc1CN1CCN(Cc2ccccc2)[C@@H]2CS(=O)(=O)C[C@@H]21	0.6287	1.378	-7.361
CCCc1nc(N2CCN(Cc3ccccn3)CC2)c2cnn(C)c2n1	5.766	-11.81	1.127
O=C(c1cscn1)N1CCc2[nH]nc(Nc3ccccc3)c2C1	0.9009	-1.59	-9.465
CC(NC(=O)CN1CCN(c2ccncc2Cl)CC1)c1ccco1 (centres unmarked)	1.03	-3.805	-1.72
COCCN1CCN(c2ccc(CN(C)C)cn2)CC1	4.13	4.127	1.971
NC(=O)CN1CCCC(c2cncc(Nc3ncccn3)n2)C1 (centres unmarked)	2.361	-2.311	-
O=c1[nH]c(CN2CCN(CC(F)(F)F)CC2)nc2ccccc12	9.294	2.149	-1.556
Cc1noc([C@@H]2CC[C@@H]3[C@@H](CCN3S(=O)(=O)c3cccnc3)O2)n1	9.79	-5.528	-4.503
CSc1ccc(C2SCC(=O)Nc3c2c(=O)[nH]n3C2CCOCC2)cc1 (centres unmarked)	-0.9698	-6.032	2.171
C1CCN(CCN2CCCCC2C2OCCO2)CC1 (centres unmarked)	0.5187	15.27	-1.175
CC(NC(=O)NCCCn1cncn1)c1ccc2c(c1)CC(=O)N2 (centres unmarked)	0.05885	-16.41	-0.1935
COc1ccc(CNC[C@H]2Cn3ccnc3CO2)cn1	1.488	-12.83	-1.138
COCC(=O)N1C[C@@H](OCc2cccnc2)[C@H]2OCCC[C@@H]21	5.493	1.685	-0.1744
O=C(Cc1ccccn1)N1CCN2C[C@H](Oc3cncnc3)C[C@H]2C1	3.672	4.285	-0.1564

Some entries from above, unchanged:

{"compound": "NC(=O)CN1CCCC(c2cncc(Nc3ncccn3)n2)C1", "stereo": "centres unmarked", "PfKRS1": 2.361, "ClpP1P2": -2.311}
{"compound": "O=C(c1cscn1)N1CCc2[nH]nc(Nc3ccccc3)c2C1", "PfKRS1": 0.9009, "ClpP1P2": -1.59, "MtTrpRS": -9.465}

Source: ChEMBL document CHEMBL3988442, “University of Dundee, Small-Polar-MMV Screening Library” (2021).